Literature values, collected in patent US12622895B2, “Anti-neurodegenerative combinations and use for treatment of neurodegenerative diseases” (ALTO NEUROSCIENCE, INC., priority 2018, dated 2026).

System: brain cell systems
Conditions: cited from earlier work

In the case of `CC(C)c1c(C(=O)Nc2ccccc2)c(-c2ccccc2)c(-c2ccc(F)cc2)n1CC[C@@H](O)C[C@@H](O)CC(=O)O` [atorvastatin, (3R,5R)-7-[2-(4-fluorophenyl)-3-phenyl-4-(phenylcarbamoyl)-5-propan-2-ylpyrrol-1-yl]-3,5-dihydroxyheptanoic acid], the “consequences of the dopaminergic neurotoxin 6-OHDA” value is listed as “protect against the deleterious consequences of the dopaminergic neurotoxin 6-hydroxydopamine”.
